From paper PMC12170880
Results are given in words; binding and its absence hold for the method and conditions named. Some results given as binding are weak or reduced against the parent protein; the word gives no strength. Sequences can lack the tags named with a protein.

The chains behind the UniProt entries cited, without tags or fusion partners. Residues count along the entry.
UniProt Q9XIE1, residues 1-191: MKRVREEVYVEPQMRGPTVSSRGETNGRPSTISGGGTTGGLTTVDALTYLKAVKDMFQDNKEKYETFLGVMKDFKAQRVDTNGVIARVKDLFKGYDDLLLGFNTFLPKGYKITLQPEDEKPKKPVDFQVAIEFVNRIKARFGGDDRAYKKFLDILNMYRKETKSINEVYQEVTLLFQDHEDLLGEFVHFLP

Biological target: T1, GST-HDA19 (Arabidopsis thaliana) (UniProt O22446)
T1 sequence: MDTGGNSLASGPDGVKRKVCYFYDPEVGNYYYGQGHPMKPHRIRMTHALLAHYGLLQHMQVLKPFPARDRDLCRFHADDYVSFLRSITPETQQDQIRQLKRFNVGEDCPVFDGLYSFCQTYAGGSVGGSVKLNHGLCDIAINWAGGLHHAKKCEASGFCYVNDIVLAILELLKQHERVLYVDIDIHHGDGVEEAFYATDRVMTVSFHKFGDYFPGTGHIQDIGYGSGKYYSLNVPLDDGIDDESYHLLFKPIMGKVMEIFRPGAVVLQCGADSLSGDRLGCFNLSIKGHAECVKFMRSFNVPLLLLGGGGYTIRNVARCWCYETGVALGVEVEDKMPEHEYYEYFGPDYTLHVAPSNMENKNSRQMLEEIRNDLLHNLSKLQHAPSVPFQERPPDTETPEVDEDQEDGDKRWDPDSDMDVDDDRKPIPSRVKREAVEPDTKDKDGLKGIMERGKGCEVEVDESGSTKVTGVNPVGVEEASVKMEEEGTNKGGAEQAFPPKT
Assay: pull-down; pairs of GST-, MBP- or His-tagged proteins incubated with GST or MBP beads 2 h at 4 °C, five washes with lysis buffer, elution, western blot with anti-GST, anti-MBP or anti-His; both purified

His-SNL5-3 (1–191 aa) (from UniProt Q9XIE1 1-191) (domain or fragment)
binding: binds
